From PMC9308285 come the findings set out here.

For assay [1], the target named is T1, Annexin-A1 (mouse (endogenous in primary microglia)) (UniProt P10107).
T1 sequence: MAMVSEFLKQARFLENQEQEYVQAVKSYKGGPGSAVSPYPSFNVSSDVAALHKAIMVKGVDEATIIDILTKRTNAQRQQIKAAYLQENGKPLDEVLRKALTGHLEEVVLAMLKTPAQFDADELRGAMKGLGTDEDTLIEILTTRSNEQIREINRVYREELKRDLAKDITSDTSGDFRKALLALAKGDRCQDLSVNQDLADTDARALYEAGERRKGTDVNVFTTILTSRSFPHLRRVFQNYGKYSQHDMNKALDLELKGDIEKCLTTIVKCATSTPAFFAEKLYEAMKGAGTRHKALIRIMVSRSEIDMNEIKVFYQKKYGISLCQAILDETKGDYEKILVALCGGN
As to the kind of experiment: co-IP; lysates of primary cultured mouse microglia infected with adenovirus encoding vector, SENP6, sh.NC or sh.SENP6; IP buffer with NEM or protease inhibitor mixture; antibody 12 h at 4 °C, protein A/G plus agarose 4 h at 4 °C, washed three times with PBS; immunoblot; which protein was precipitated is not told. In general terms: Immunoblotting shows a protein as a band on a membrane.

Assay [2] concerns the target T2, NBR1 (mouse (endogenous in primary microglia)) (UniProt P97432).
T2 sequence: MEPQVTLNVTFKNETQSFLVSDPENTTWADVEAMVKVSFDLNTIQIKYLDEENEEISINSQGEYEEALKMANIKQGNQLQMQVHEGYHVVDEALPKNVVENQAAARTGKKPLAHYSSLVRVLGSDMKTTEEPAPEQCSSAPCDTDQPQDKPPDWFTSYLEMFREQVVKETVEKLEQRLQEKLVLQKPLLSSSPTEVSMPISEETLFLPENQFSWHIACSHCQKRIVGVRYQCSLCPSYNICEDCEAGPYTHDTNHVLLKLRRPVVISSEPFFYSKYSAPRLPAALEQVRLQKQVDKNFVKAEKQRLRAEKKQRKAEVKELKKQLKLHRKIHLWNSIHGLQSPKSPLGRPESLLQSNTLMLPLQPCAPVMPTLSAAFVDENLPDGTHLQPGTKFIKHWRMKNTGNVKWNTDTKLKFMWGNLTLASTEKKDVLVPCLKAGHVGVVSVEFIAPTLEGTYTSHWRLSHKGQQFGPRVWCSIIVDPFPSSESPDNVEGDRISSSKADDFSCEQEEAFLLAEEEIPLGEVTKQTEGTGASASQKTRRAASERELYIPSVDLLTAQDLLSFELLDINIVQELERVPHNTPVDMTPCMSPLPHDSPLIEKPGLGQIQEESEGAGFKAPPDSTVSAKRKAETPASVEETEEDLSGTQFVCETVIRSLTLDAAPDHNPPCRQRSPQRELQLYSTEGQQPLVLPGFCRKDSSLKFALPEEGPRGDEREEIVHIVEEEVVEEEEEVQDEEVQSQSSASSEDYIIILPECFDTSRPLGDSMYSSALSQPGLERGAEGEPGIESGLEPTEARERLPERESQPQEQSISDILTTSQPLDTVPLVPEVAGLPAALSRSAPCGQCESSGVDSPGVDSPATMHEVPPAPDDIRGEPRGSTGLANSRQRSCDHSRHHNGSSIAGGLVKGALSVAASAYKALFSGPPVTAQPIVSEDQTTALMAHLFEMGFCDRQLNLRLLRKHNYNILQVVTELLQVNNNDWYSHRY
Described as above.

Results are given in words; binding and its absence hold for the method and conditions named. In cells and extracts the contact can be indirect. Some results given as binding are weak or reduced against the parent protein; the word gives no strength.

B1: IκB kinase α (protein, UniProt Q60680 1-745)
chain: MERPPGLRPGAGGPWEMRERLGTGGFGNVSLYQHRELDLKIAIKSCRLELSSKNRERWCHEIQIMKKLDHANVVKACDVPEELNFLINDVPLLAMEYCSGGDLRKLLNKPENCCGLKESQILSLLSDIGSGIRYLHENKIIHRDLKPENIVLQDVGGKTIHKIIDLGYAKDVDQGSLCTSFVGTLQYLAPELFENKPYTATVDYWSFGTMVFECIAGYRPFLHHLQPFTWHEKIKKKDPKCIFACEEMTGEVRFSSHLPQPNSLCSLIVEPMESWLQLMLNWDPQQRGGPIDLTLKQPRCFALMDHILNLKIVHILNMTSAKIISFLLPCDESLHSLQSRIERETGINTGSQELLSETGISLDPRKPASQCVLDGVRGCDSYMVYLFDKSKTVYEGPFASRSLSDCVNYIVQDSKIQLPIIQLRKVWAEAVHYVSGLKEDYSRLFQGQRAAMLSLLRYNANLTKMKNTLISASQQLKAKLEFFRKSIQLDLERYSEQMTYGISSEKMLKAWKEMEEKAIHYSEVGVIGYLEDQIMSLHTEIMELQKSPYGRRQGDLMESLEQRAIDLYKQLKHRPPDHLYSDSTEMVKIIVHTVQSQDRVLKELFGHLSKLLGCKQKIIDLLPKVEVALSNIKEADNTVMFMQGKRQKEIWHLLKIACTQSSARSLVGSSLEGTVTPPVSAWLPPTLADREHPLTCVVTPQDGETLAQMIEENLNCLGHLSTIIREANEDQSSSLMSLDWSWLAE
As for B1, the binding result in assay [1] and in assay [2] was “binds” throughout.
